Measured values as given in paper doi:10.1101/2020.04.07.029496 (bioRxiv, 2020).
Results are given in words; binding and its absence hold for the method and conditions named. Some results given as binding are weak or reduced against the parent protein; the word gives no strength.

Biological target: T1, S. cerevisiae Tip20 (S. cerevisiae) (UniProt P33891)
T1 sequence: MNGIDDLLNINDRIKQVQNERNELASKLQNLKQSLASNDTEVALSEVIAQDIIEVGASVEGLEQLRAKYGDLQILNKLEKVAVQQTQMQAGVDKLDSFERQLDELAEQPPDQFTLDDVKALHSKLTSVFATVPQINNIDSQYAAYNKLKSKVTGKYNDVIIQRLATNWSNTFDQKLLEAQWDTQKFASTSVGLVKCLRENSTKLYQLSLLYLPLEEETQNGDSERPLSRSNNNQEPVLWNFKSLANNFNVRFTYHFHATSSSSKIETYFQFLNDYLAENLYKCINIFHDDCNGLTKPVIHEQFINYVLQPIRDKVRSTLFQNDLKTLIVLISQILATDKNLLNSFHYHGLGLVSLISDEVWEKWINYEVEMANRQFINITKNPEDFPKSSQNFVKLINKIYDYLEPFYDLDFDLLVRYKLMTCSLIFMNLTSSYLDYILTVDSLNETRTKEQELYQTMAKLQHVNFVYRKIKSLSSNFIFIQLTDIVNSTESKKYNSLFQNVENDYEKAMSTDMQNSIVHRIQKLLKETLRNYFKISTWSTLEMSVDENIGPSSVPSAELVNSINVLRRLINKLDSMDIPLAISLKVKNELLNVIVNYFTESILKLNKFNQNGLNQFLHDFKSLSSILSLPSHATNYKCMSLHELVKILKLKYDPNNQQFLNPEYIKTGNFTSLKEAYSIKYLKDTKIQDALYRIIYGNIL
Assay: ITC

binding: binds
B1: S. cerevisiae Sec20_(1-174) (domain or fragment, UniProt P28791 1-174, looked up)
chain: MVVTFLQDLEVLQDALLNNLQKLSAISRRKESGESKHDNKDSFAAIANEHNDEEEEIEFEDLVNIIESKVSDFESVLKCSIVEMTYKYPELKLQWEKSPRYDQCDKLHIVKLDKQMNEDIYAQLVEELDFVLQFVDWFYCYRLKVKEILRQHHKRDLAWNDEKRDRAIKFHAVD
